Substitutions are numbered along the chain they refer to. Construct, isoform or probe ends are uncertain for at least one entry. At least one verdict rests on a figure or table, not on a statement of the authors. For some of these results: Where a protein sequence is shown, tags need not be part of it.
Key:
[1] = target: T1, Siz2∆CT K109A (UniProt Q12216); assay: fluorescence polarization; settings: FP: 20 mM HEPES pH 7.5, 125 mM NaCl, 0.1% Tween-20, 23°C, 50 nM DNA (RPA/SUMO-RPA on ss32: 1 nM DNA, plus 5 mM MgCl2, 1 mM DTT); recombinant protein; residues 1-420; protein details: His6-thioredoxin removed with TEV; label: 5' 6-FAM on strand 1
T1 sequence (looked up): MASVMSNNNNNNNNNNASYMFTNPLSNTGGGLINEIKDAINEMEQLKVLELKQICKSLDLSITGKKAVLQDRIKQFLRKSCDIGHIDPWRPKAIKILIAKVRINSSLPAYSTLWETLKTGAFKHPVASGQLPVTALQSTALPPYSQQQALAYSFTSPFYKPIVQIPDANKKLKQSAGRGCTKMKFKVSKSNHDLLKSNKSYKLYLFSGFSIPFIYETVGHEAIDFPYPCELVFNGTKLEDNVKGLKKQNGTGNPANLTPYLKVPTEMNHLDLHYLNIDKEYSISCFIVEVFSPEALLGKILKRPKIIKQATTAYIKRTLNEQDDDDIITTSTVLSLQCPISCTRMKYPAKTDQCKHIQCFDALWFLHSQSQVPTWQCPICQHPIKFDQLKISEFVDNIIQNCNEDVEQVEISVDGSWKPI

[2] = target: T2, Siz2∆CT K92E (UniProt Q12216); assay: fluorescence polarization; settings: FP: 20 mM HEPES pH 7.5, 125 mM NaCl, 0.1% Tween-20, 23°C, 50 nM DNA (RPA/SUMO-RPA on ss32: 1 nM DNA, plus 5 mM MgCl2, 1 mM DTT); recombinant protein; residues 1-420; protein details: His6-thioredoxin removed with TEV; label: 5' 6-FAM on strand 1
T2 sequence (looked up): T1 sequence (looked up) with K92E, A109K

[3] = target: T3, Siz2∆CT R78E (UniProt Q12216); assay: fluorescence polarization; settings: FP: 20 mM HEPES pH 7.5, 125 mM NaCl, 0.1% Tween-20, 23°C, 50 nM DNA (RPA/SUMO-RPA on ss32: 1 nM DNA, plus 5 mM MgCl2, 1 mM DTT); recombinant protein; residues 1-420; protein details: His6-thioredoxin removed with TEV; label: 5' 6-FAM on strand 1
T3 sequence (looked up): T1 sequence (looked up) with R78E, A109K

[4] = target: T4, Siz2∆CT K109E (UniProt Q12216); assay: fluorescence polarization; settings: FP: 20 mM HEPES pH 7.5, 125 mM NaCl, 0.1% Tween-20, 23°C, 50 nM DNA (RPA/SUMO-RPA on ss32: 1 nM DNA, plus 5 mM MgCl2, 1 mM DTT); recombinant protein; residues 1-420; protein details: His6-thioredoxin removed with TEV; label: 5' 6-FAM on strand 1
T4 sequence (looked up): T1 sequence (looked up) with A109E

[5] = target: T5, Siz2∆CT K92A (UniProt Q12216); assay: fluorescence polarization; settings: FP: 20 mM HEPES pH 7.5, 125 mM NaCl, 0.1% Tween-20, 23°C, 50 nM DNA (RPA/SUMO-RPA on ss32: 1 nM DNA, plus 5 mM MgCl2, 1 mM DTT); recombinant protein; residues 1-420; protein details: His6-thioredoxin removed with TEV; label: 5' 6-FAM on strand 1
T5 sequence (looked up): T1 sequence (looked up) with K92A, A109K

[6] = target: T6, Siz2∆CT R72A (UniProt Q12216); assay: fluorescence polarization; settings: FP: 20 mM HEPES pH 7.5, 125 mM NaCl, 0.1% Tween-20, 23°C, 50 nM DNA (RPA/SUMO-RPA on ss32: 1 nM DNA, plus 5 mM MgCl2, 1 mM DTT); recombinant protein; residues 1-420; protein details: His6-thioredoxin removed with TEV; label: 5' 6-FAM on strand 1
T6 sequence (looked up): T1 sequence (looked up) with R72A, A109K

[7] = target: T7, Siz2∆CT R78A (UniProt Q12216); assay: fluorescence polarization; settings: FP: 20 mM HEPES pH 7.5, 125 mM NaCl, 0.1% Tween-20, 23°C, 50 nM DNA (RPA/SUMO-RPA on ss32: 1 nM DNA, plus 5 mM MgCl2, 1 mM DTT); recombinant protein; residues 1-420; protein details: His6-thioredoxin removed with TEV; label: 5' 6-FAM on strand 1
T7 sequence (looked up): T1 sequence (looked up) with R78A, A109K

[8] = target: T8, Siz2∆CT R72E (UniProt Q12216); assay: fluorescence polarization; settings: FP: 20 mM HEPES pH 7.5, 125 mM NaCl, 0.1% Tween-20, 23°C, 50 nM DNA (RPA/SUMO-RPA on ss32: 1 nM DNA, plus 5 mM MgCl2, 1 mM DTT); recombinant protein; residues 1-420; protein details: His6-thioredoxin removed with TEV; label: 5' 6-FAM on strand 1
T8 sequence (looked up): T1 sequence (looked up) with R72E, A109K

[9] = target: T9, Siz2 full length (UniProt Q12216); assay: EMSA; settings: 5 mM MgCl2; EMSA: same buffer with 5 mM MgCl2 (Fig 8 also 1 mM DTT), 23°C, 6% gel in 0.5x TBE; recombinant protein; protein details: His6-Smt3 removed with …; label: 5' 6-FAM on strand 2 (fw20)
T9 sequence (looked up, limits assumed): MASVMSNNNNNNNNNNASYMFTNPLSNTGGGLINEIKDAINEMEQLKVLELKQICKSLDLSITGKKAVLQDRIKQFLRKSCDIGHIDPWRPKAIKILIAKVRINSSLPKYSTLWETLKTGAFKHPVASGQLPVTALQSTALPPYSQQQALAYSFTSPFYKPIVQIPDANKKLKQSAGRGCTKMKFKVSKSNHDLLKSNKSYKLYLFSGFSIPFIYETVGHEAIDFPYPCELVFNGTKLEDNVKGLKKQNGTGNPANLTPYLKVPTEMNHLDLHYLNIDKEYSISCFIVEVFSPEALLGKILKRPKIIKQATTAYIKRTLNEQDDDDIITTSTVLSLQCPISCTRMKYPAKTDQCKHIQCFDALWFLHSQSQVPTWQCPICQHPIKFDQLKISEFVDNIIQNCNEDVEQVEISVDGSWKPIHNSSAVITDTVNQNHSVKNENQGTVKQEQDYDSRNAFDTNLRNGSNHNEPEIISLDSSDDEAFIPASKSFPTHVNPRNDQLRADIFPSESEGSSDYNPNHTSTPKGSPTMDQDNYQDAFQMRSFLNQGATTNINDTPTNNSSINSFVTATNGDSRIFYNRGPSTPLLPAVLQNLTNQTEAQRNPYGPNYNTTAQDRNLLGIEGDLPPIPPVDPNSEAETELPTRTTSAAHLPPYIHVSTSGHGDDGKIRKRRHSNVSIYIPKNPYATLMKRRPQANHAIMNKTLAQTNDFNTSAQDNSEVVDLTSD

[10] = tested on: Siz2 full length + RPA∆WH; assay: EMSA; settings: Siz2 titrated into RPA∆WH-DNA, 5 mM MgCl2; EMSA: same buffer with 5 mM MgCl2 (Fig 8 also 1 mM DTT), 23°C, 6% gel in 0.5x TBE; recombinant protein; label: 5' 6-FAM on strand 2 (fw20)
[11] = tested on: Siz2∆CT + RPA (Rfa1/Rfa2/Rfa3); assay: fluorescence polarization; settings: Siz2∆CT titrated into RPA-DNA; FP: 20 mM HEPES pH 7.5, 125 mM NaCl, 0.1% Tween-20, 23°C, 50 nM DNA (RPA/SUMO-RPA on ss32: 1 nM DNA, plus 5 mM MgCl2, 1 mM DTT); recombinant protein; label: 5' 6-FAM on strand 2 (fw20)
[12] = target: T10, Siz2∆CT (UniProt Q12216); assay: fluorescence polarization; settings: FP: 20 mM HEPES pH 7.5, 125 mM NaCl, 0.1% Tween-20, 23°C, 50 nM DNA (RPA/SUMO-RPA on ss32: 1 nM DNA, plus 5 mM MgCl2, 1 mM DTT); recombinant protein; residues 1-420; protein details: His6-thioredoxin removed with TEV; label: 5' 6-FAM on strand 2 (fw20)
T10 sequence (looked up): T1 sequence (looked up) with A109K

[13] = tested on: Siz2∆CT + RPA∆WH; assay: fluorescence polarization; settings: Siz2∆CT titrated into RPA∆WH-DNA, affinity comparable to RPA-DNA; FP: 20 mM HEPES pH 7.5, 125 mM NaCl, 0.1% Tween-20, 23°C, 50 nM DNA (RPA/SUMO-RPA on ss32: 1 nM DNA, plus 5 mM MgCl2, 1 mM DTT); recombinant protein; label: 5' 6-FAM on strand 2 (fw20)

Measured: binding result

GCTGTAGCTAGTTTTGCTTC (double strand) [6-FAM-ds20]
not listed: [9] | [10] | [11] | [12] | [13]
binds: all other assays above

GAAGCAAAACTAGCTACAGCTTTTTTTTTTTTTTTTTTTTTTTTTTTTTTTT / GCTGTAGCTAGTTTTGCTTC [6-FAM-ds20ss32]
binds: [9] | [10] | [11] | [12] | [13]

Reference: paper PMC8591536, “DNA asymmetry promotes SUMO modification of the single‐stranded DNA‐binding protein RPA” (The EMBO Journal, 2021)
